Experimental data from PubChem BioAssay AID1347426 (Functional Genomics Laboratory (NCATS/FGL), 2020).
The whole screen tested about 31,000 sequences, of which about 1,400 (4.5%) were called active.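 Rule for the calls: active = median seed-adjusted z-score above 1 or below -1; inactive = the rest.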 Some of the results follow.

Experiment: Novel Modifiers of Survival Motor Neuron (SMN) Protein: Gene Identification via Genome-wide siRNA Screen;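 note: luminescence tracks full-length SMN protein made from the SMN2 reporter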
Details: HEK293T SMN2-luciferase reporter, siRNA knockdown, 72 h; actives lie on both sides
How it was run: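 Each of three siRNAs per gene is reverse-transfected (1 pmol) into reporter HEK293T cells whose luciferase output tracks SMN protein level. After 72 h culture, ONE-Glo luminescence is control-normalized, log10-transformed and MAD-standardized; Common Seed Analysis deprioritizes seed-driven hits.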
For UAACUCUGGUUGCACGAAATT against KDSR, the median seed-adjusted z-score was inactive: -0.108.
In the case of CCCUAAACAUUUUAGAUGATT against PDE7A, the median seed-adjusted z-score was inactive: 0.861.
For CUUGAACAAGUGUCAAUAATT against COX7A1, the median seed-adjusted z-score was inactive: -0.47.
In the case of GGAUUACAUCCAUCGAGUATT against DDX47, the median seed-adjusted z-score was inactive: -0.398.
With CCCUUAUGAAUAUAGCUAUTT against ATL3 the median seed-adjusted z-score was inactive: 0.201.
With ACCUGGAUAUCAACCAGUATT against PROM2 the median seed-adjusted z-score was inactive: 0.188.
In the case of GACUUACUUAGAUAUGAGATT against ZNF568, the median seed-adjusted z-score was inactive: 0.501.
For CAGAGCAAGUGGACCUGUATT against MARS, the median seed-adjusted z-score was inactive: -0.266.
For GGACCGGAUUUGUUCGGAUTT against UBN1, the median seed-adjusted z-score was inactive: 0.0782.
For CCUAAGAAGCUACAAGUAUTT against PNLIPRP1, the median seed-adjusted z-score was inactive: -0.725.
With CAGUGUUAGUGGAUUCAGATT against TMEM87B the median seed-adjusted z-score was inactive: -0.51.
For CUCAAGAACUGUCAAGUAATT against GSK3B, the median seed-adjusted z-score was inactive: -0.952.
In the case of CUGUCCAUCUGGGUCGUGATT against SLC30A2, the median seed-adjusted z-score was inactive: -0.402.
For GGUCAUACCUAUAACUACATT against SLC14A1, the median seed-adjusted z-score was inactive: -0.0585.
For GAAAGACUGUCCAAUCACATT against PHF12, the median seed-adjusted z-score was inactive: 0.784.
For CAUUUUCAGUCUUUAGAAATT against RNF34, the median seed-adjusted z-score was inactive: -0.0857.
For UCAUCGACAUGGUCCUGAATT against PTPRN, the median seed-adjusted z-score was inactive: -0.272.
For CCAUCUACCUUUGCCGACATT against PFKFB1, the median seed-adjusted z-score was inactive: -0.561.
With GUUCCUACCCAUAACUAAATT against SLC26A5 the median seed-adjusted z-score was inactive: -0.252.
In the case of GAACCACCAUUGGACCUAUTT against DNPEP, the median seed-adjusted z-score was inactive: -0.293.
In the case of GGACUUAUUCUGCAUAGGATT against ZNF471, the median seed-adjusted z-score was inactive: 0.364.
In the case of GGAGCAUUUUGAUAAGCCUTT against SOX3, the median seed-adjusted z-score was inactive: 0.32.
In the case of CAUUCGAAACCUUGUCUUATT against PTPRR, the median seed-adjusted z-score was inactive: 0.502.
With CCACUACGCUCGCAACUUATT against GAL3ST4 the median seed-adjusted z-score was inactive: 0.248.
With GCAACCCUCAUUGAAGAUATT against TRPC4AP the median seed-adjusted z-score was inactive: 0.106.
With GAAUGUUCAAGAUCGAUUUTT against RANBP2 the median seed-adjusted z-score was active: 1.53.
In the case of CGAGCUACACUGUCCACUUTT against CSGLCA-T, the median seed-adjusted z-score was inactive: 0.146.
In the case of ACUUCAUCGAGGACCCAAATT against CACNA2D2, the median seed-adjusted z-score was inactive: -0.702.
In the case of CCAUGAACUUUGAUGUGAUTT against PABPC4, the median seed-adjusted z-score was inactive: -0.42.
For GGAAGUCUGCAAUUGAACATT against RAPGEF5, the median seed-adjusted z-score was inactive: 0.529.
With AGAUCAACGUGAUUGAGGATT against CENTB1 the median seed-adjusted z-score was inactive: -0.239.
In the case of CGACCACGUUGAAACGCAATT against SCN2A, the median seed-adjusted z-score was inactive: 0.
With AAACAACUCGAUUUCGAAATT against PCDHB13 the median seed-adjusted z-score was inactive: -0.293.
For GCAGAUUACGCAUUUACAATT against GTPBP10, the median seed-adjusted z-score was inactive: 0.
For CCAGUGUCUUUUAACUUAATT against GARS, the median seed-adjusted z-score was inactive: 0.138.
With CGAUGGGUGAGACUGGAUATT against CENTD2 the median seed-adjusted z-score was inactive: -0.305.
With GGAUUAGCCUCAACGAUGUTT against PARP4 the median seed-adjusted z-score was inactive: -0.226.
For GGUGGAACUUUUAAUCAAATT against GABPB2, the median seed-adjusted z-score was inactive: 0.441.
In the case of GGCACCAACUUCACAUUCATT against SUSD2, the median seed-adjusted z-score was inactive: 0.422.
For GAAAGAUGCAAAAGACAAATT against SFPQ, the median seed-adjusted z-score was active: -1.15.
In the case of CAUGUUCUUUGAGAAGCGATT against PLSCR3, the median seed-adjusted z-score was inactive: 0.
In the case of CGAAGUGAGUGAUAACAGUTT against RNF157, the median seed-adjusted z-score was inactive: 0.0197.
For GGUGUCCAAUAAGACCGAATT against SERPINC1, the median seed-adjusted z-score was inactive: -0.0822.
In the case of GGGUGGAGGUUAUCCUGAATT against AXL, the median seed-adjusted z-score was inactive: -0.603.
With CCUUUACUGUUUAUGGACATT against ZNF30 the median seed-adjusted z-score was inactive: -0.0208.
In the case of GCAUUUUGCUGCGAAGUAUTT against PIK3AP1, the median seed-adjusted z-score was inactive: 0.0678.
With CAAACCUACCUAAUCAUAUTT against GDPD2 the median seed-adjusted z-score was inactive: -0.0868.
In the case of GAACCGGAAGAUCAUAUUATT against SPAG6, the median seed-adjusted z-score was inactive: -0.439.
For GGAACAGACAGUGACCAAUTT against ZNF335, the median seed-adjusted z-score was inactive: -0.305.
In the case of GUGCUCUUCUGAGAUCUAATT against SLC25A40, the median seed-adjusted z-score was inactive: 0.414.
For GAAUGAAUCAAAUCUUUUUTT against EBPL, the median seed-adjusted z-score was inactive: -0.113.
In the case of GACCAGACAUUCACACGAATT against ZNF483, the median seed-adjusted z-score was inactive: 0.
With GAACGUGAAGAUCAACUUUTT against SCN8A the median seed-adjusted z-score was inactive: 0.
In the case of GGCUAUGACUGGAGCACGATT against PVRL2, the median seed-adjusted z-score was inactive: -0.367.
In the case of CUACCGCAAAUACUUCUAUTT against SIPA1, the median seed-adjusted z-score was inactive: -0.0872.
With CAACAAGUUCUAUACUAAATT against MADD the median seed-adjusted z-score was inactive: 0.363.
With GCAUUAUGAUUGCAUGGAATT against OSGEPL1 the median seed-adjusted z-score was inactive: -0.708.
In the case of CAGCAGAGCUUCUUAGCAATT against INPP1, the median seed-adjusted z-score was inactive: -0.047.
With GUAUCCAGGUUGCAAAUAUTT against BIRC8 the median seed-adjusted z-score was inactive: 0.0184.
For GGAAAGUCUUUACCCUCAATT against ZNF41, the median seed-adjusted z-score was inactive: 0.342.
For GAACUGCAAAGACCUGUUUTT against SSU72, the median seed-adjusted z-score was active: -1.64.
For GGGAUCCUCCUUAUCCUAATT against FXYD6, the median seed-adjusted z-score was inactive: -0.214.
With CCAUCGAAAUUGUGAAGCUTT against ATP10D the median seed-adjusted z-score was inactive: -0.35.
In the case of CAGGUGAUGUGAUAUCAUATT against VGLL2, the median seed-adjusted z-score was inactive: -0.0234.
In the case of GGACUUGAACAUCAGCUAUTT against FAM62A, the median seed-adjusted z-score was inactive: -0.34.
With GAUGAUUCCCUGUACAUCATT against FSTL4 the median seed-adjusted z-score was inactive: 0.429.
With GAGCUGAGCUUCAACGUGATT against MYO1F the median seed-adjusted z-score was inactive: 0.103.
In the case of GGCUUAUAUAAAGAUCUAUTT against SPG3A, the median seed-adjusted z-score was inactive: 0.203.
With CGCCCUGCAUGUAUACAAUTT against PDPR the median seed-adjusted z-score was inactive: -0.0653.
With GGAACAACAGAGACAAGAATT against ADSS the median seed-adjusted z-score was inactive: -0.272.
In the case of CGAGAUGAUUUGGUCCAGATT against TFCP2L1, the median seed-adjusted z-score was inactive: -0.246.
In the case of GCAUCGAUUUUUCACCUGUTT against HTR4, the median seed-adjusted z-score was inactive: 0.444.
For GAAUGAGUAUGUUCAUGGATT against VRK3, the median seed-adjusted z-score was inactive: -0.526.
For GAUUGCAUAUUACAAACGATT against GIN1, the median seed-adjusted z-score was inactive: -0.0585.
With GGGUCAUUCUGAUCACCGATT against KLK3 the median seed-adjusted z-score was inactive: 0.0191.
With GGUUCACGGUUCAAAAUCATT against SLC25A24 the median seed-adjusted z-score was inactive: -0.0384.
For GCUAUUCCAUCUACCGAUATT against IL20RA, the median seed-adjusted z-score was inactive: -0.646.
For CCGUAAUAGGUGUCGGAGATT against GPR116, the median seed-adjusted z-score was inactive: 0.
For GCUCAUGACUUACUCCCAUTT against GNB1, the median seed-adjusted z-score was inactive: -0.166.
With CCAUAAUUUUGUUAUGGUATT against TXNDC12 the median seed-adjusted z-score was inactive: -0.154.
For GGACUUUGACAAGAACAGUTT against CYP1A2, the median seed-adjusted z-score was inactive: 0.
With GUGAAGCAUUUGUAUAUCATT against MICAL2 the median seed-adjusted z-score was inactive: -0.0224.
For CGGACACUUUGUUAUUGGATT against RABGGTB, the median seed-adjusted z-score was inactive: -0.856.
In the case of GCCUCUACAUGAAAUCUGUTT against SCARB1, the median seed-adjusted z-score was inactive: 0.0715.
In the case of GCAGCUUGUUAAAUCAACATT against AFP, the median seed-adjusted z-score was inactive: -0.144.
For GCAUUACUAGGGUUGAAGATT against PNPLA8, the median seed-adjusted z-score was inactive: 0.0576.
With GGUCUUCAGUGAACAGUUUTT against ZNF562 the median seed-adjusted z-score was inactive: -0.0954.
In the case of GGUUGUUGUAUACUUGCAATT against LIPJ, the median seed-adjusted z-score was inactive: 0.295.
With CUCUCAGCCUUCUACCUGATT against MAN1C1 the median seed-adjusted z-score was inactive: -0.548.
With GAACAGGCGUGCCAAGUCUTT against MIXL1 the median seed-adjusted z-score was inactive: -0.204.
With CCCUAUACCCAGGUUUUGATT against ACHE the median seed-adjusted z-score was inactive: 0.
With CGAAUUAACGGGUCAGAUUTT against CLCN1 the median seed-adjusted z-score was inactive: 0.314.
In the case of GGUCACCUGUUACAAGUGUTT against CPSF4, the median seed-adjusted z-score was inactive: 0.298.
With GAAAAUGUUCGGUACUUGATT against TPTE the median seed-adjusted z-score was inactive: 0.213.
In the case of GUUGAUUACCUGUACCGAATT against INPP5B, the median seed-adjusted z-score was inactive: 0.
With CCCAAGGUGUUAUAGAUGATT against STARD4 the median seed-adjusted z-score was inactive: 0.173.
With CGAUUCACCAGGAACGACATT against ZBTB7B the median seed-adjusted z-score was inactive: -0.242.
For GGCCGAUUAACUACCCUAATT against STAT2, the median seed-adjusted z-score was inactive: 0.
With CCUUUGAUGUCACAGCGAUTT against SLC9A6 the median seed-adjusted z-score was inactive: -0.0831.
For CAGCAUAAGCAGUACUAUATT against AEBP2, the median seed-adjusted z-score was inactive: -0.212.
With GGUUAUGUAGUAACGAGUUTT against ALS2 the median seed-adjusted z-score was inactive: 0.
For GAAUGUGCUAUGAAGCUUUTT against SPRR1B, the median seed-adjusted z-score was inactive: -0.721.
With CAACUGCAAGAGGACUGUATT against SLC10A4 the median seed-adjusted z-score was inactive: 0.069.
In the case of GCAACUAACUCUAAUAACATT against B3GALT2, the median seed-adjusted z-score was inactive: 0.031.
In the case of GCUACCAUGAGGUCCACUATT against NSUN5, the median seed-adjusted z-score was inactive: 0.118.
For GAUCGAUAUCUUUACAAGATT against SLK, the median seed-adjusted z-score was inactive: 0.0479.
In the case of CCUGCCCAGAGAUACGAAATT against SMURF1, the median seed-adjusted z-score was active: -1.4.
